Reference: doi:10.1101/802678

T1: GFP-DA1 (Arabidopsis thaliana) (UniProt P0C7Q8)
T1 sequence: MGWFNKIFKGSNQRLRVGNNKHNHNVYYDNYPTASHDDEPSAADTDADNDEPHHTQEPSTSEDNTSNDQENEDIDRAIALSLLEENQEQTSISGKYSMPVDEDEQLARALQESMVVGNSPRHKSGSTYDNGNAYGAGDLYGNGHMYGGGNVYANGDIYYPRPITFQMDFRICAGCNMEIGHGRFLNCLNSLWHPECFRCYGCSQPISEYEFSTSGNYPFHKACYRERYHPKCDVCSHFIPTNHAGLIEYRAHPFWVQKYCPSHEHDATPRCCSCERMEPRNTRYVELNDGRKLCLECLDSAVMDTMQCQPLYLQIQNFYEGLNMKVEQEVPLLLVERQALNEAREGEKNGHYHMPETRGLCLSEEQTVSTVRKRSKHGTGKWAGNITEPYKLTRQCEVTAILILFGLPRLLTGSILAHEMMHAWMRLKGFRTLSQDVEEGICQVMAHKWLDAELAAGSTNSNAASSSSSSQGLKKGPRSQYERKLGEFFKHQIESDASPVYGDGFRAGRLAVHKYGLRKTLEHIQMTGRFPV

T2: GFP-DAR2 (Arabidopsis thaliana) (UniProt Q0WSN2)
T2 sequence: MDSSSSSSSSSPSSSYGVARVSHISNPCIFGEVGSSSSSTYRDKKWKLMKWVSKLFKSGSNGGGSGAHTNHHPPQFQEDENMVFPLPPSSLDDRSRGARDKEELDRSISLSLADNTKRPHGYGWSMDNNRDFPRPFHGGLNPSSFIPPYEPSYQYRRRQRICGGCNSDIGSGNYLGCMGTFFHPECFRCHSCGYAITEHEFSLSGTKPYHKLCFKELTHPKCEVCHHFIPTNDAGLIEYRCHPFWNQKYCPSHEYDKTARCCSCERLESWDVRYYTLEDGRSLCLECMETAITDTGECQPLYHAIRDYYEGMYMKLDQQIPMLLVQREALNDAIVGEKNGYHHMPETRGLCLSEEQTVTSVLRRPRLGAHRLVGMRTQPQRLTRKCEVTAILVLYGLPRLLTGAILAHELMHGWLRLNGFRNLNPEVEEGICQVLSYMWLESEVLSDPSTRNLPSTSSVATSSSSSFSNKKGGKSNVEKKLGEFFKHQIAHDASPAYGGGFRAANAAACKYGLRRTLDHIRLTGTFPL

T3: GFP-DAR1 (Arabidopsis thaliana) (UniProt Q8W4F0)
T3 sequence: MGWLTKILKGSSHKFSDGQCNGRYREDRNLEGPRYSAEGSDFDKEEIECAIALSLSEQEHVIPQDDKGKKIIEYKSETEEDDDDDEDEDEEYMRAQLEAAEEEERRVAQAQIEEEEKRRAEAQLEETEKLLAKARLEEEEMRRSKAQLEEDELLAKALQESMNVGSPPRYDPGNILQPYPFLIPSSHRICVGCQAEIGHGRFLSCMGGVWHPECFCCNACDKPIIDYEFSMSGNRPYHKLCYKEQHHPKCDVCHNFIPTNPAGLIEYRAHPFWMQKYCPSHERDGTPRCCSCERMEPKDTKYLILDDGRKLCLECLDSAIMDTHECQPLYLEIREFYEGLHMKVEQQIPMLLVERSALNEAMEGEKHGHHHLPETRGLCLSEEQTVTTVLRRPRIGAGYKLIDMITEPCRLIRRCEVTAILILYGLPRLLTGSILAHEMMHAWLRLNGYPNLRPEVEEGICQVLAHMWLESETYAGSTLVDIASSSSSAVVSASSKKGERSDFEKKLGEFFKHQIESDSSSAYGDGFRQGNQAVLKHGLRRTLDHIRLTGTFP

B1: UBIQUITIN-SPECIFIC PROTEASE 12 (enzyme, UniProt Q9FPT1 1-1116)
chain: MTMMTPPPVDQPEDEEMLVPNSDLVDGPAQPMEVTQPETAASTVENQPAEDPPTLKFTWTIPNFSRQNTRKHYSDVFVVGGYKWRILIFPKGNNVDHLSMYLDVSDAASLPYGWSRYAQFSLAVVNQIHTRYTVRKETQHQFNARESDWGFTSFMPLSELYDPSRGYLVNDTVLVEAEVAVRKVLDYWSYDSKKETGFVGLKNQGATCYMNSLLQTLYHIPYFRKAVYHMPTTENDAPTASIPLALQSLFYKLQYNDTSVATKELTKSFGWDTYDSFMQHDVQELNRVLCEKLEDKMKGTVVEGTIQQLFEGHHMNYIECINVDFKSTRKESFYDLQLDVKGCKDVYASFDKYVEVERLEGDNKYHAEGHGLQDAKKGVLFIDFPPVLQLQLKRFEYDFMRDTMVKINDRYEFPLELDLDREDGKYLSPDADRSVRNLYTLHSVLVHSGGVHGGHYYAFIRPTLSDQWYKFDDERVTKEDLKRALEEQYGGEEELPQTNPGFNNNPPFKFTKYSNAYMLVYIRESDKDKIICNVDEKDIAEHLRVRLKKEQEEKEDKRRYKAQAHLYTIIKVARDEDLKEQIGKDIYFDLVDHDKVRSFRIQKQTPFQQFKEEVAKEFGVPVQLQRFWIWAKRQNHTYRPNRPLTPQEELQPVGQIREASNKANTAELKLFLEVEHLDLRPIPPPEKSKEDILLFFKLYDPEKAVLSYAGRLMVKSSSKPMDITGKLNEMVGFAPDEEIELFEEIKFEPCVMCEHLDKKTSFRLCQIEDGDIICFQKPLVNKEIECLYPAVPSFLEYVQNRQLVRFRALEKPKEDEFVLELSKQHTYDDVVEKVAEKLGLDDPSKLRLTSHNCYSQQPKPQPIKYRGVDHLSDMLVHYNQTSDILYYEVLDIPLPELQGLKTLKVAFHHATKEEVVIHNIRLPKQSTVGDVINELKTKVELSHPDAELRLLEVFYHKIYKIFPSTERIENINDQYWTLRAEEIPEEEKNIGPNDRLILVYHFAKETGQNQQVQNFGEPFFLVIHEGETLEEIKNRIQKKLHVSDEDFAKWKFAFMSMGRPEYLQDTDVVYNRFQRRDVYGAFEQYLGLEHADTTPKRAYAANQNRHAYEKPVKIYN
B2: UBP13 (enzyme, UniProt Q84WU2 1-1115)
chain: MTMMTPPPLDQQEDEEMLVPNPDLVEGPQPMEVAQTDPAATAVENPPPEDPPSLKFTWTIPMFTRLNTRKHYSDVFVVGGYKWRILIFPKGNNVDHLSMYLDVADAANLPYGWSRYSQFSLAVVNQVNNRYSIRKETQHQFNARESDWGFTSFMPLSELYEPTRGYLVNDTVLIEAEVAVRKVLDYWSYDSKKETGFVGLKNQGATCYMNSLLQTLYHIPYFRKAVYHMPTTENDAPTASIPLALQSLFYKLQYNDTSVATKELTKSFGWDTYDSFMQHDVQELNRVLCEKLEDKMKGTVVEGTIQKLFEGHHMNYIECINVDYKSTRKESFYDLQLDVKGCKDVYASFDKYVEVERLEGDNKYHAEGHDLQDAKKGVLFIDFPPVLQLQLKRFEYDFMRDTMVKINDRYEFPLQLDLDREDGRYLSPDADKSVRNLYTLHSVLVHSGGVHGGHYYAFIRPTLSDQWYKFDDERVTKEDVKRALEEQYGGEEELPQNNPGFNNPPFKFTKYSNAYMLVYIRESDKDKIICNVDEKDIAEHLRVRLKKEQEEKEDKRKYKAQAHLFTTIKVARDDDITEQIGKNIYFDLVDHEKVRSFRIQKQTPFQQFKEEVAKEFGVPVQLQRFWIWAKRQNHTYRPNRPLSPNEELQTVGQIREASNKANNAELKLFLEIERGPDDLPIPPPEKTSEDILLFFKLYDPENAVLRYVGRLMVKSSSKPMDIVGQLNKMAGFAPDEEIELFEEIKFEPCVMCEQIDKKTSFRLCQIEDGDIICYQKPLSIEESEFRYPDVPSFLEYVQNRELVRFRTLEKPKEDEFTMELSKLHTYDDVVERVAEKLGLDDPSKLRLTSHNCYSQQPKPQPIKYRGVDHLSDMLVHYNQTSDILYYEVLDIPLPELQGLKTLKVAFHSATKDEVIIHNIRLPKQSTVGDVINELKTKVELSHQDAELRLLEVFFHKIYKIFPSTERIENINDQYWTLRAEEIPEEEKNIGPNDRLIHVYHFTKEAGQNQQVQNFGEPFFLVIHEGETLEEIKTRIQKKLHVPDEDFAKWKFASFSMGRPDYLLDTDVVYNRFQRRDVYGAWEQYLGLEHIDNAPKRAYAANQNRHAYEKPVKIYN

Columns and labels:
Assay in all cases: affinity purification with mass spectrometry
[1] = target: T1, GFP-DA1 (Arabidopsis thaliana)
[2] = target: T2, GFP-DAR2 (Arabidopsis thaliana)
[3] = target: T3, GFP-DAR1 (Arabidopsis thaliana)

| Binder | binding [1] | binding [2] | binding [3] |
| --- | --- | --- | --- |
| B1 | binds | binds | binds |
| B2 | binds |  | binds |

Results are given in words; binding and its absence hold for the method and conditions named. Binding seen in cells or lysates may run through a third protein. Here binding means that the protein was enriched with, or labelled near, the bait; the list need not be complete. Where a sequence is shown, tags or fusion partners need not be part of it.
